Like-named read-outs stand apart in the source and are kept apart here. No constants are given. Whether binding was seen depends on the method and setting. Binding seen in cells or lysates may run through a third protein. Some binding calls cover weakened binding; strength is not graded here. For some of these results: Where a sequence is shown, tags or fusion partners need not be part of it.

The chains behind the UniProt entries cited, without tags or fusion partners. Where a name states a change or a piece, a line headed by the entry shows the natural chain unless it says otherwise.
UniProt P23443, whole entry: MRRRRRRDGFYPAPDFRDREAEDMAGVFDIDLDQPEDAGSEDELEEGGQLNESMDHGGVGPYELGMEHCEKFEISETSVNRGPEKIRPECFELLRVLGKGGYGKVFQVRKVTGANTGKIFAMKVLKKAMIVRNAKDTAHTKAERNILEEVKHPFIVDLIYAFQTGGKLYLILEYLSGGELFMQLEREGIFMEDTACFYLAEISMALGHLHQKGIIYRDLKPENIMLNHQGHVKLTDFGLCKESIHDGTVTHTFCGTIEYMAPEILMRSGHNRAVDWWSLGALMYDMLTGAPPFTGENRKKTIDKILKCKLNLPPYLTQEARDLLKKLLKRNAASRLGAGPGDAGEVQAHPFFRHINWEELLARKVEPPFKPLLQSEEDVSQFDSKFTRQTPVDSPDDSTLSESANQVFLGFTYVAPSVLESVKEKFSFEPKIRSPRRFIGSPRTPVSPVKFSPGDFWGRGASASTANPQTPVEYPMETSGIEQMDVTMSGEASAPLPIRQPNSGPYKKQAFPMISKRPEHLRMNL
UniProt P06730, whole entry: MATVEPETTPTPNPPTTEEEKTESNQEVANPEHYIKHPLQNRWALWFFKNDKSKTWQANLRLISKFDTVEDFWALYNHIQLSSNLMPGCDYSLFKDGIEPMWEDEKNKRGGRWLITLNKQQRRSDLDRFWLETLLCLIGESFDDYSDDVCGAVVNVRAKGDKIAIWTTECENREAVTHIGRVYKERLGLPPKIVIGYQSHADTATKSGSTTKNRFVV
UniProt O60346, whole entry: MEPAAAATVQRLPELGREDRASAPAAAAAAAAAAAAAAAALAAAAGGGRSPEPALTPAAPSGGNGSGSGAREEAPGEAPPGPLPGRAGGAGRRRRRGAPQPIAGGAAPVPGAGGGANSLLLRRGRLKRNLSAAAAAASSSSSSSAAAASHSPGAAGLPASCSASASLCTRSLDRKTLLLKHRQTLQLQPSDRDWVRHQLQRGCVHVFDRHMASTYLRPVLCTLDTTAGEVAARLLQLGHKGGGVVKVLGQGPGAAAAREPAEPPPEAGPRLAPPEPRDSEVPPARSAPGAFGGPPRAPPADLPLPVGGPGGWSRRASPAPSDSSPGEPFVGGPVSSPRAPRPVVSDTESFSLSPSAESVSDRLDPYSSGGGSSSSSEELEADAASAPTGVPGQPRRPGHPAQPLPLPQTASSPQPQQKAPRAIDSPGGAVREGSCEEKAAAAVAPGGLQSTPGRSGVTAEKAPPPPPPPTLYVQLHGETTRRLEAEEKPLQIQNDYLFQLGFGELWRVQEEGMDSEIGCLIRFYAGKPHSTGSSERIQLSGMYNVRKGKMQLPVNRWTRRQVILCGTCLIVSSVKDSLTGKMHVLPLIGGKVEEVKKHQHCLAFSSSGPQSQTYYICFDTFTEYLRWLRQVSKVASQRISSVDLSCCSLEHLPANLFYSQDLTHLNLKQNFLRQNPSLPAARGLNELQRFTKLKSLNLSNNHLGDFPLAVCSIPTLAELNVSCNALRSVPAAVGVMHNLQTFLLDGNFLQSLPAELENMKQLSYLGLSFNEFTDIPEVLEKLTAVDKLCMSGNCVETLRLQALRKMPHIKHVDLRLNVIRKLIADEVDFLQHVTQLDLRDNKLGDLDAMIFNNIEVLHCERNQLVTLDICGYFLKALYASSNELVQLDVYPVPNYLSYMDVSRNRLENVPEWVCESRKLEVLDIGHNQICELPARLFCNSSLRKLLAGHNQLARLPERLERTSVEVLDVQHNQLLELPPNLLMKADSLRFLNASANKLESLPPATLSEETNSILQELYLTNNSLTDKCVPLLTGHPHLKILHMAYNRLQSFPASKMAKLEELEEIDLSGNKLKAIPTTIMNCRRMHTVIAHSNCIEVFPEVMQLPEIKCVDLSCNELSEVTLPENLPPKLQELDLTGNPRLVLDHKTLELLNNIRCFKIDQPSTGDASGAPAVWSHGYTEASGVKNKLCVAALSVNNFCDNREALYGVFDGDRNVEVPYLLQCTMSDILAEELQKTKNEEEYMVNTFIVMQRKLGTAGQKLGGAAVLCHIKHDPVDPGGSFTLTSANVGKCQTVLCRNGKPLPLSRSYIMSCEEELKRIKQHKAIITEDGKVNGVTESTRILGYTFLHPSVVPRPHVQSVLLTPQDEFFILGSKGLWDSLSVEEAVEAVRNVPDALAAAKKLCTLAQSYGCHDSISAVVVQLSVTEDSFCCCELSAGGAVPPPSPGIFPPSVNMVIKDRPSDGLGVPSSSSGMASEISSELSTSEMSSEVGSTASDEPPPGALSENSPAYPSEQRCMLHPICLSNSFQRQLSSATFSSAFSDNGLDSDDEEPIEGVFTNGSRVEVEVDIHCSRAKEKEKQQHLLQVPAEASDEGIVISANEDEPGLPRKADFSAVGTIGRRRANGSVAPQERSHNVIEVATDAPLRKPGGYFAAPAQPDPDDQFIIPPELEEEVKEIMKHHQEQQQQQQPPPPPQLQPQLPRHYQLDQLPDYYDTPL

One experiment has as its target HA-S6K1 T412A (UniProt P23443). The experiment is described as follows: co-IP.
In the next experiment the target is HA-S6K1 T412E (UniProt P23443). The experiment is described as follows: co-IP.
Experiment [1] concerns the target HA-tagged S6K1 (αI variant), wild type (UniProt P23443). The experiment is described as follows: co-IP.
For another experiment, the target named is myc-eIF4E S209E (UniProt P06730). The experiment is described as follows: co-IP.
Experiment [2] concerns the target myc-eIF4E (wild type) (UniProt P06730). The experiment is described as follows: co-IP.
The target in another experiment is HA-S6K1 F16A (UniProt P23443). The experiment is described as follows: co-IP.
Another experiment deals with HA-S6K1 F28A (UniProt P23443). The experiment is described as follows: co-IP.
The target in experiment [3] is Flag-S6K1 (stably expressed in HEK293) (UniProt P23443). The experiment is described as follows: co-IP.
In experiment [4] the target is T1, GST tagged S6K1 fragment (78-85) (UniProt P23443).
T1 sequence: SVNRGPEK
The experiment is described as follows: pull-down.

For experiment [5], the target named is eIF4E truncation mutant (30-217) (UniProt P06730). The experiment is described as follows: co-IP.
The next experiment deals with eIF4E 30-217(S209A) (UniProt P06730). The experiment is described as follows: co-IP.
A further experiment addresses eIF4E 30-217(S209E) (UniProt P06730). The experiment is described as follows: co-IP.
Experiment [6] addresses myc-eIF4E (wild type) (UniProt P06730). The experiment is described as follows: co-IP. The source holds these as a separate data set.
For experiment [7] the target is unchanged. The experiment is described as follows: co-IP. This is another data set of the same source.

“myc-eIF4E (wild type) (from UniProt P06730 1-217)”: the binding entry (in the experiment with HA-S6K1 T412A; with HA-S6K1 T412E; in [1]) was “binds” throughout.

On to “endogenous S6K1 (from UniProt P23443 1-525) (enzyme)”, for which the binding entry in the experiment with myc-eIF4E S209E and with myc-eIF4E (wild type) [2] was “binds” each time.

“endogenous eIF4E (from UniProt P06730 1-217)”: the binding result in the experiment with HA-S6K1 F16A is given as “binds”; with HA-S6K1 F28A, “no binding”; in experiment [1], “binds”.

For the molecule “HA-PHLPP1 (from UniProt O60346 1-1717) (enzyme)”, the binding result in experiment [3] and in experiment [4] was “binds” in each case.

With “Flag-S6K1 (stably expressed in HEK293) (from UniProt P23443 1-525) (enzyme)”, the binding result in experiment [5] is reported as “no binding”; in the experiment with eIF4E 30-217(S209A) it was “no binding”; in the experiment with eIF4E 30-217(S209E), “binds”; with myc-eIF4E (wild type) [6], “binds”; in the experiment with myc-eIF4E (wild type) [2], “binds”.

B1: intact TOS motif bearing peptide (FDIDL) (peptide)
peptide: FDIDL
For the molecule B1, the binding result with myc-eIF4E (wild type) [7] is “binds”.

The record behind these values is paper doi:10.1101/2020.02.15.944892.
